Assay results published in patent publication US20160024163A1.
No constants are given. Whether binding was seen depends on the method and setting. Binding seen in cells or lysates may run through a third protein. Some entries that bind do so weakly or less than the wild type. Tags and fused reporters may be left off the sequences shown.

The chains behind the UniProt entries cited, without tags or fusion partners.
UniProt Q06330: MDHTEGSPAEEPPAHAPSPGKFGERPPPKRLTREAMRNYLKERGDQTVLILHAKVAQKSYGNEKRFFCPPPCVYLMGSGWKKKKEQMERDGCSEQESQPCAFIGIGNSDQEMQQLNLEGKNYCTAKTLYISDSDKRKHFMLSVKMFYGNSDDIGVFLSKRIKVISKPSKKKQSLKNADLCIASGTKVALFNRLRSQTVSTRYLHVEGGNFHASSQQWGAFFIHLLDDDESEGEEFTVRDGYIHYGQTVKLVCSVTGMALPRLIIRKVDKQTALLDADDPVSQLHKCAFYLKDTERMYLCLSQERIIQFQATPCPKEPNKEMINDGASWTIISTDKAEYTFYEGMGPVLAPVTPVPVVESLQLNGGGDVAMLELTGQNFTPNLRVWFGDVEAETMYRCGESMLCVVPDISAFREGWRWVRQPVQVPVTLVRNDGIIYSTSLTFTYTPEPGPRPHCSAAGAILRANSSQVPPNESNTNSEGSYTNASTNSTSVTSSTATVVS

Legend:
[1] = biological target: recombining binding protein suppressor of hairless (RBP-J) (human) (UniProt Q06330); assay: co-immunoprecipitation in HEK293 cells, as summed up in the example's discussion
[2] = biological target: recombining binding protein suppressor of hairless (RBP-J) (human) (UniProt Q06330); assay: co-immunoprecipitation in HEK293 cells (FIGS. 8F-8G)
[3] = biological target: recombining binding protein suppressor of hairless (RBP-J) (human) (UniProt Q06330); assay: co-immunoprecipitation in HEK293 cells (IP with GFP antibody, blot for RBP-J; FIG. 8F)

binding [1]: binds
binding [2]: binds
binding [3]: binds
B1: GFP-GIT1(ANK) (protein, not shown: large carriers)
chain: DLSKQLHSSVRTGNLETCLRLLSLGAQANFFHPEKGTTPLHVAAKAGQTLQAELLVVYGADPGSPDVNGRTPIDYARQAGHHELAERLVECQYELTD
